The other results are listed elsewhere or left out. These are further read-outs of the screen, such as a control signal, another cell line or another target. No call is given for them. The list favours compounds with an active or inconclusive main result. Words in brackets tell the shape of the fitted curve; partial curves, single points and poor fits give uncertain potencies.
Experiment: qHTS Assay for Lipid Storage Modulators in Drosophila S3 Cells;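 on cell number change: cells counted by Cell Tracker Red CMTPX staining in the red channel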
Conditions: BODIPY lipid droplet fluorescence, 18-24 h; for cell number change: measured here: cell count max response, cells fed with added oleic acid
How it was run: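 Drosophila S3 cells loaded with oleic acid (400 uM, as added) and compounds at several concentrations; lipid droplets imaged by 488-nm laser-scanning cytometry, 500–530 nm intensity and object ratio to cell channel. Percent activity normalized to 20 uM Triacsin C.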

[1] = measured here: lipid fluorescence (Fed channel) AC50, cells fed with added oleic acid
[2] = measured here: cell number channel AC50, cells fed with added oleic acid

Compound | AC50 [1] | cell number change [%] | AC50 [2]
CN(CC(=O)Nc1ccccc1Br)C(=O)c1cccnc1Nc1cccc(C(F)(F)F)c1 | 20.6 µM [falling, single point] |  | 
COc1ccc(Nc2nc(N3CCN(S(C)(=O)=O)CC3)nc3ccccc23)c(OC)c1 | 6.51 µM [rising, single point] | 21.4 | 7.31 µM [rising, partial curve]
O=C(NCc1ccccc1)Nc1cccn(Cc2ccccc2)c1=O | 16.4 µM [rising, partial curve, poor fit] | 12.2 | 
O=C(CC1C(=O)NCCN1Cc1ccc(-c2ccccc2)cc1)NCC1CC1 (centres undefined) | 0.146 µM [falling, full curve, poor fit] | -1.55 | 
CCC(C)(C)C1CCC(NC(=O)N2CCN(c3ccccc3O)CC2)CC1 (centres undefined) |  | -15.8 | 
COc1ccc(NC(=O)CSc2nnc(Cc3ccc(C)cc3)c(=O)n2N)cc1 | 1.3 µM [rising, full curve, poor fit] |  | 
O=C(NCc1nc(-c2ccc(C(F)(F)F)cc2)no1)c1cccs1 | 29.1 µM [rising, single point] | 55.7 | 29.1 µM [rising, single point]
O=C(CSc1nccn1Cc1ccccc1)Nc1ccccc1 |  | 55.1 | 29.1 µM [rising, single point]
C=CCn1c(=O)c2ccccc2n2c(SCc3csc(-c4ccccc4)n3)nnc12 | 0.326 µM [rising, full curve, poor fit] | -7.01 | 
CCCOc1ccccc1N/C(N)=N/c1nc(C)cc(C)n1 | 18.4 µM [falling, partial curve] | -19.6 | 
CCOc1ccc(CNS(=O)(=O)c2ccc(-c3coc(C)n3)cc2)cc1 | 25.9 µM [rising, single point] | 17.9 | 
O=C(COc1ccc(S(=O)(=O)NC2CCCCC2)cc1Cl)NCc1cccnc1 | 7.31 µM [falling, partial curve, poor fit] | -1.82 | 
c1ccc(OCC2CCNCC2)nc1 |  | 1.1 | 
N#C/C(=C(/O)COC(=O)c1ccc(C#N)cc1)c1nc2ccccc2s1 | 4.61 µM [falling, partial curve, poor fit] | 43.2 | 13 µM [rising, single point]
O=C(CCCC(=O)N(CC(=O)NC1CCCCC1)c1ccc(F)cc1)Nc1ccccn1 |  | -2.25 | 
CN1C(=O)[C@H]2[C@@H](/C=C/c3ccccc3)N3C(=O)CN(CC4CC4)C(=O)[C@@]3(C)[C@H]2C1=O |  | -1.8 | 
Fc1ccc(/C=N/NC2=Nc3cccc4cccc2c34)cc1 | 1.64 µM [falling, partial curve] | -32 | 32.6 µM [falling, single point]
O=C(Cc1sc(-c2ccccc2Cl)nc1-c1ccccc1)Nc1ccccc1 | 2.59 µM [rising, partial curve] | 2.81 | 0.291 µM [rising, full curve, poor fit]
CSCC(O)Cn1[nH]c(=O)c2cc(Cl)c(Cl)cc2c1=O (centres undefined) | 29.1 µM [falling, single point] | -43.7 | 29.1 µM [falling, single point]

An excerpt from above with just AC50 [2] and AC50 [1]:

| Compound | AC50 [2] | AC50 [1] |
| --- | --- | --- |
| CCOc1ccc(CNS(=O)(=O)c2ccc(-c3coc(C)n3)cc2)cc1 |  | 25.9 µM [rising, single point] |
| O=C(COc1ccc(S(=O)(=O)NC2CCCCC2)cc1Cl)NCc1cccnc1 |  | 7.31 µM [falling, partial curve, poor fit] |

Next part:

Compound | AC50 [1] | cell number change [%] | AC50 [2]
O=C(CSc1nc2ccccc2c(=O)n1-c1ccccc1)N1CCc2ccccc2C1 | 9.2 µM [rising, partial curve] | 34 | 16.4 µM [rising, single point]
COc1cc(C(=O)OCC(=O)N(CC(C)C)C2CCS(=O)(=O)C2)cc(OC)c1C (centres undefined) | 13 µM [rising, partial curve] | 7.27 | 
Cc1nc(SCC(=O)Nc2ccnc3ccccc23)n[nH]1 | 14.6 µM [rising, partial curve] | 111 | 8.2 µM [rising, partial curve]
O=C1CN(S(=O)(=O)c2ccccc2Cl)CCN1 | 6.51 µM [rising, partial curve, poor fit] | -31.4 | 
Cc1cccnc1NC(=O)CCCc1c[nH]c2ccccc12 | 16.4 µM [rising, single point] | 26.6 | 
CC(NC(=O)/C(=C/c1ccc(OC(F)F)cc1)c1ccccc1)c1ccccc1 (centres undefined) | 16.4 µM [falling, single point] | -22.3 | 
Cc1cc(OCC(O)CN2CCCC2)cc(C)c1Cl (centres undefined) | 10.3 µM [rising, partial curve] | 12.4 | 
Cc1ccc(CC(=O)Nc2cc(C)on2)cc1 |  |  | 0.291 µM [rising, partial curve, poor fit]
CCN(CC)CCCN(C(=O)c1cccs1)c1nc(-c2ccc(OC)cc2)cs1 | 0.058 µM [rising, partial curve, poor fit] | -9.28 | 
Cc1cc(C(=O)CSc2n[nH]c(-c3ccccc3F)n2)c(C)n1Cc1cccs1 |  |  | 1.46 µM [falling, full curve]
Cc1ccc2nc(SCC(=O)c3ccc(Cl)s3)[nH]c2c1 | 10.3 µM [rising, single point] | -16.7 | 
CC(C)(C)NS(=O)(=O)c1ccc(N2C(=O)c3ccccc3C2=O)cc1 |  | 56.9 | 
Cc1cccc(C)c1N1CCN(S(=O)(=O)c2ccccc2)CC1 |  | 15.5 | 
CCn1ccc(C(=O)NC2CCCC2)n1 | 0.0231 µM [rising, full curve, poor fit] | -10.1 | 
COc1cc(OC)c2cc(C(=O)N/N=C/c3cccc(OC)c3O)[nH]c2c1 |  | -23.9 | 
N#Cc1ccc(NCCc2ccccn2)c([N+](=O)[O-])c1 | 2.59 µM [falling, full curve] | -51.7 | 2.59 µM [falling, full curve]
COc1cccc(CNC(=O)CCC(=O)N2CC(C)Oc3ccccc32)c1OC (centres undefined) | 32.6 µM [falling, partial curve, poor fit] | -19.3 | 
CSCCC(=O)N1CCC(n2nccc2NC(=O)CCc2ccccc2)CC1 |  | 39.1 | 3.66 µM [rising, full curve]
O=c1cc(CSc2ccccc2)nc(-c2ccccc2)[nH]1 | 6.51 µM [falling, single point] | -7.82 | 

Source: PubChem BioAssay AID2685 (National Center for Advancing Translational Sciences (NCATS), 2010)
